{"source": "PubChem BioAssay AID1224830 (NIAID, 2016)", "screen": "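Regulators of TLR4 signalling towards TNF-alpha in macrophage-like cells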 (primary screen)", "system": "human THP-1 monocytic leukaemia cells, TNF dual-luciferase reporter clone, PMA-differentiated to macrophage-like cells", "knock-down reagent": "siRNA pool against human genes, 50 nM", "time to read-out": "LPS for 4 h, given about 3 days after siRNA transfection", "challenge": "bacterial LPS (TLR4 ligand), 10 ng/ml", "detection": "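Ratio of firefly to renilla light, scaled to the plate median and expressed as a robust z-score per replicate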", "reading the numbers": "TNF reporter robust z-score: higher = stronger TNF reporter response to LPS", "rule for the call": "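a well is active when its z-score exceeds 2.8 or falls below -1.5; control wells carry no call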", "note": "The deposit covers about 18,000 reagents; this is a part drawn at random. Of all reagents, about 2,900 (16%) were called active. 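Calls are made per well; low scores hint the gene aids the LPS response, high scores that it dampens it.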 Repeated entries: four replicate wells of each siRNA pool."}
{"Target gene": "INTS6L (integrator complex subunit 6 like)", "PubChem SID": "SID315463129", "TNF reporter robust z-score": 2.58, "call": "inactive"}
{"Target gene": "INTS6L (integrator complex subunit 6 like)", "PubChem SID": "SID315463129", "TNF reporter robust z-score": 2.56, "call": "inactive"}
{"Target gene": "INTS6L (integrator complex subunit 6 like)", "PubChem SID": "SID315463129", "TNF reporter robust z-score": 1.25, "call": "inactive"}
{"Target gene": "INTS6L (integrator complex subunit 6 like)", "PubChem SID": "SID315463129", "TNF reporter robust z-score": 1.09, "call": "inactive"}
{"Target gene": "PLEKHG3 (pleckstrin homology and RhoGEF domain containing G3)", "PubChem SID": "SID315455625", "TNF reporter robust z-score": -0.94, "call": "inactive"}
{"Target gene": "PLEKHG3 (pleckstrin homology and RhoGEF domain containing G3)", "PubChem SID": "SID315455625", "TNF reporter robust z-score": -0.35, "call": "inactive"}
{"Target gene": "PLEKHG3 (pleckstrin homology and RhoGEF domain containing G3)", "PubChem SID": "SID315455625", "TNF reporter robust z-score": -1.03, "call": "inactive"}
{"Target gene": "PLEKHG3 (pleckstrin homology and RhoGEF domain containing G3)", "PubChem SID": "SID315455625", "TNF reporter robust z-score": -0.63, "call": "inactive"}
{"Target gene": "UBAP2L (ubiquitin associated protein 2 like)", "PubChem SID": "SID315453656", "TNF reporter robust z-score": -0.18, "call": "inactive"}
{"Target gene": "UBAP2L (ubiquitin associated protein 2 like)", "PubChem SID": "SID315453656", "TNF reporter robust z-score": 0.1, "call": "inactive"}
{"Target gene": "UBAP2L (ubiquitin associated protein 2 like)", "PubChem SID": "SID315453656", "TNF reporter robust z-score": -0.6, "call": "inactive"}
{"Target gene": "UBAP2L (ubiquitin associated protein 2 like)", "PubChem SID": "SID315453656", "TNF reporter robust z-score": 0.11, "call": "inactive"}
{"Target gene": "BUB3 (BUB3 mitotic checkpoint protein)", "PubChem SID": "SID315453107", "TNF reporter robust z-score": 5.46, "call": "active"}
{"Target gene": "BUB3 (BUB3 mitotic checkpoint protein)", "PubChem SID": "SID315453107", "TNF reporter robust z-score": 6.46, "call": "active"}
{"Target gene": "BUB3 (BUB3 mitotic checkpoint protein)", "PubChem SID": "SID315453107", "TNF reporter robust z-score": 7.62, "call": "active"}
{"Target gene": "BUB3 (BUB3 mitotic checkpoint protein)", "PubChem SID": "SID315453107", "TNF reporter robust z-score": 3.59, "call": "active"}
{"Target gene": "CDON (cell adhesion associated, oncogene regulated)", "PubChem SID": "SID315456382", "TNF reporter robust z-score": 1.15, "call": "inactive"}
{"Target gene": "CDON (cell adhesion associated, oncogene regulated)", "PubChem SID": "SID315456382", "TNF reporter robust z-score": 3.11, "call": "active"}
{"Target gene": "CDON (cell adhesion associated, oncogene regulated)", "PubChem SID": "SID315456382", "TNF reporter robust z-score": 2.25, "call": "inactive"}
{"Target gene": "CDON (cell adhesion associated, oncogene regulated)", "PubChem SID": "SID315456382", "TNF reporter robust z-score": 0.22, "call": "inactive"}
{"Target gene": "ALDH8A1 (aldehyde dehydrogenase 8 family member A1)", "PubChem SID": "SID315458939", "TNF reporter robust z-score": 2.27, "call": "inactive"}
{"Target gene": "ALDH8A1 (aldehyde dehydrogenase 8 family member A1)", "PubChem SID": "SID315458939", "TNF reporter robust z-score": 2.09, "call": "inactive"}
{"Target gene": "ALDH8A1 (aldehyde dehydrogenase 8 family member A1)", "PubChem SID": "SID315458939", "TNF reporter robust z-score": 1.86, "call": "inactive"}
{"Target gene": "ALDH8A1 (aldehyde dehydrogenase 8 family member A1)", "PubChem SID": "SID315458939", "TNF reporter robust z-score": 2.42, "call": "inactive"}
{"Target gene": "RNASE11 (ribonuclease A family member 11 (inactive))", "PubChem SID": "SID315461552", "TNF reporter robust z-score": -0.93, "call": "inactive"}
{"Target gene": "RNASE11 (ribonuclease A family member 11 (inactive))", "PubChem SID": "SID315461552", "TNF reporter robust z-score": 0.14, "call": "inactive"}
{"Target gene": "RNASE11 (ribonuclease A family member 11 (inactive))", "PubChem SID": "SID315461552", "TNF reporter robust z-score": 0.21, "call": "inactive"}
{"Target gene": "SLC25A4", "PubChem SID": "SID315447318", "TNF reporter robust z-score": -0.77, "call": "inactive"}
{"Target gene": "SLC25A4", "PubChem SID": "SID315447318", "TNF reporter robust z-score": 0.67, "call": "inactive"}
{"Target gene": "SLC25A4", "PubChem SID": "SID315447318", "TNF reporter robust z-score": 1.29, "call": "inactive"}
{"Target gene": "SLC25A4", "PubChem SID": "SID315447318", "TNF reporter robust z-score": 0.06, "call": "inactive"}
{"Target gene": "ZCCHC17 (zinc finger CCHC-type containing 17)", "PubChem SID": "SID315456768", "TNF reporter robust z-score": -0.41, "call": "inactive"}
{"Target gene": "ZCCHC17 (zinc finger CCHC-type containing 17)", "PubChem SID": "SID315456768", "TNF reporter robust z-score": -0.29, "call": "inactive"}
{"Target gene": "ZCCHC17 (zinc finger CCHC-type containing 17)", "PubChem SID": "SID315456768", "TNF reporter robust z-score": -1.52, "call": "active"}
{"Target gene": "ZCCHC17 (zinc finger CCHC-type containing 17)", "PubChem SID": "SID315456768", "TNF reporter robust z-score": 0.14, "call": "inactive"}
{"Target gene": "CEP70 (centrosomal protein 70)", "PubChem SID": "SID315459752", "TNF reporter robust z-score": 2.89, "call": "active"}
{"Target gene": "CEP70 (centrosomal protein 70)", "PubChem SID": "SID315459752", "TNF reporter robust z-score": 2.09, "call": "inactive"}
{"Target gene": "CEP70 (centrosomal protein 70)", "PubChem SID": "SID315459752", "TNF reporter robust z-score": 1.26, "call": "inactive"}
{"Target gene": "CEP70 (centrosomal protein 70)", "PubChem SID": "SID315459752", "TNF reporter robust z-score": -0.53, "call": "inactive"}
{"Target gene": "ETV7 (ETS variant transcription factor 7)", "PubChem SID": "SID315456751", "TNF reporter robust z-score": -0.74, "call": "inactive"}
{"Target gene": "ETV7 (ETS variant transcription factor 7)", "PubChem SID": "SID315456751", "TNF reporter robust z-score": -0.53, "call": "inactive"}
{"Target gene": "ETV7 (ETS variant transcription factor 7)", "PubChem SID": "SID315456751", "TNF reporter robust z-score": -1.22, "call": "inactive"}
{"Target gene": "ETV7 (ETS variant transcription factor 7)", "PubChem SID": "SID315456751", "TNF reporter robust z-score": -0.69, "call": "inactive"}
{"Target gene": "OR2L13 (olfactory receptor family 2 subfamily L member 13)", "PubChem SID": "SID315463790", "TNF reporter robust z-score": -0.53, "call": "inactive"}
{"Target gene": "OR2L13 (olfactory receptor family 2 subfamily L member 13)", "PubChem SID": "SID315463790", "TNF reporter robust z-score": -1.4, "call": "inactive"}
{"Target gene": "OR2L13 (olfactory receptor family 2 subfamily L member 13)", "PubChem SID": "SID315463790", "TNF reporter robust z-score": -0.69, "call": "inactive"}
{"Target gene": "OR2L13 (olfactory receptor family 2 subfamily L member 13)", "PubChem SID": "SID315463790", "TNF reporter robust z-score": -0.54, "call": "inactive"}
{"Target gene": "SLC46A3", "PubChem SID": "SID315463682", "TNF reporter robust z-score": -0.81, "call": "inactive"}
{"Target gene": "SLC46A3", "PubChem SID": "SID315463682", "TNF reporter robust z-score": 0.13, "call": "inactive"}
{"Target gene": "SLC46A3", "PubChem SID": "SID315463682", "TNF reporter robust z-score": -0.42, "call": "inactive"}
{"Target gene": "SLC46A3", "PubChem SID": "SID315463682", "TNF reporter robust z-score": 1.37, "call": "inactive"}
{"Target gene": "CABS1 (calcium binding protein, spermatid associated 1)", "PubChem SID": "SID315460688", "TNF reporter robust z-score": 0.4, "call": "inactive"}
{"Target gene": "CABS1 (calcium binding protein, spermatid associated 1)", "PubChem SID": "SID315460688", "TNF reporter robust z-score": 1.43, "call": "inactive"}
{"Target gene": "CABS1 (calcium binding protein, spermatid associated 1)", "PubChem SID": "SID315460688", "TNF reporter robust z-score": 0.37, "call": "inactive"}
{"Target gene": "CABS1 (calcium binding protein, spermatid associated 1)", "PubChem SID": "SID315460688", "TNF reporter robust z-score": 1.7, "call": "inactive"}
{"Target gene": "CCDC32 (coiled-coil domain containing 32)", "PubChem SID": "SID315460821", "TNF reporter robust z-score": 0.67, "call": "inactive"}
{"Target gene": "CCDC32 (coiled-coil domain containing 32)", "PubChem SID": "SID315460821", "TNF reporter robust z-score": 0.68, "call": "inactive"}
{"Target gene": "CCDC32 (coiled-coil domain containing 32)", "PubChem SID": "SID315460821", "TNF reporter robust z-score": -0.84, "call": "inactive"}
{"Target gene": "CCDC32 (coiled-coil domain containing 32)", "PubChem SID": "SID315460821", "TNF reporter robust z-score": -0.71, "call": "inactive"}
{"Target gene": "PRKRA", "PubChem SID": "SID315452670", "TNF reporter robust z-score": -0.11, "call": "inactive"}
{"Target gene": "PRKRA", "PubChem SID": "SID315452670", "TNF reporter robust z-score": -0.51, "call": "inactive"}
{"Target gene": "PRKRA", "PubChem SID": "SID315452670", "TNF reporter robust z-score": 0, "call": "inactive"}
{"Target gene": "PRKRA", "PubChem SID": "SID315452670", "TNF reporter robust z-score": -0.75, "call": "inactive"}

Sorted by “TNF reporter robust z-score” (highest first): 8 of the entries above
{"Target gene": "CABS1 (calcium binding protein, spermatid associated 1)", "PubChem SID": "SID315460688", "TNF reporter robust z-score": 1.7, "call": "inactive"}
{"Target gene": "CABS1 (calcium binding protein, spermatid associated 1)", "PubChem SID": "SID315460688", "TNF reporter robust z-score": 1.43, "call": "inactive"}
{"Target gene": "SLC46A3", "PubChem SID": "SID315463682", "TNF reporter robust z-score": 1.37, "call": "inactive"}
{"Target gene": "CCDC32 (coiled-coil domain containing 32)", "PubChem SID": "SID315460821", "TNF reporter robust z-score": 0.67, "call": "inactive"}
{"Target gene": "CABS1 (calcium binding protein, spermatid associated 1)", "PubChem SID": "SID315460688", "TNF reporter robust z-score": 0.4, "call": "inactive"}
{"Target gene": "CABS1 (calcium binding protein, spermatid associated 1)", "PubChem SID": "SID315460688", "TNF reporter robust z-score": 0.37, "call": "inactive"}
{"Target gene": "SLC46A3", "PubChem SID": "SID315463682", "TNF reporter robust z-score": 0.13, "call": "inactive"}
{"Target gene": "SLC46A3", "PubChem SID": "SID315463682", "TNF reporter robust z-score": -0.42, "call": "inactive"}
